Measurements taken from paper PMC7862700.
The list shows a part of the results, in another mix than the full data. At the low end of the ranking the order means little.

target: T1, ELF3 (UniProt P78545); experiment: DAPPL (digital affinity profiling via proximity ligation, sequencing); settings: 10 mM Tris-HCl pH 7.5, 50 mM NaCl, 1 mM DTT, 4% glycerol, room temperature, 30 min; GST-TFs on glutathione beads, 16-mer random dsDNA library, 0.1% …; high values mean tight binding; double strand, one strand shown; scale: fold enrichment (6-mer frequency, TF over GST control)
T1 sequence: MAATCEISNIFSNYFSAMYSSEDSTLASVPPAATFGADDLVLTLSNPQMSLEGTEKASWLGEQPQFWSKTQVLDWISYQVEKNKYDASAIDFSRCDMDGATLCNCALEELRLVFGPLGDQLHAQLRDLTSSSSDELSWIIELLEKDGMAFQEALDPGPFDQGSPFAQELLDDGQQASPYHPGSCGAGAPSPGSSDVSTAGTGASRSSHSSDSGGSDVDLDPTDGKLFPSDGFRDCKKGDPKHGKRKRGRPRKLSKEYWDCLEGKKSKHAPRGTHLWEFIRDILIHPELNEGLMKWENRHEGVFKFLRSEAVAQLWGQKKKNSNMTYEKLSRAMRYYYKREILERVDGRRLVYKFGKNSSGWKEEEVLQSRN

Row | Sequence | binding signal
1 | GTCCTG | 1.07
2 | CCTTAA | 1.37
3 | CTGTGC | 1.08
4 | GCAACA | 0.994
5 | GATAAA | 0.863
6 | CGCAAC | 0.848
7 | CTGGTA | 1.2
8 | CTTAAG | 0.93
9 | GAATTG | 1.17
10 | GTTCAC | 1.12
11 | TAGAAC | 0.974
12 | AGATTT | 1.21
13 | CGAATG | 1.12
14 | CCGCTC | 1.54
15 | ATGCAG | 1.05
16 | CCAATT | 1.39
17 | TAGAAA | 0.991
18 | AGCAAC | 0.989
19 | CGCCCA | 0.947
20 | TATTAG | 0.982

Row | Sequence | binding signal
21 | AAACTG | 1.01
22 | TTTAGA | 0.969
23 | GGCTCG | 1
24 | TCGTCC | 1.08
25 | AGATTA | 0.989
26 | AGTACC | 0.991
27 | GGAACT | 1.87
28 | AACGCA | 1.03
29 | CGGTAT | 0.922
30 | AAACAC | 1.33
31 | CACCAA | 1.1
32 | GCCCCA | 0.992
33 | AGTCTC | 0.922
34 | GTGCCC | 0.94
35 | GCAATC | 0.85
36 | TCTGTA | 0.96
37 | AATCAG | 1.14
38 | GCTAGG | 1.14
39 | AATTAA | 1.24

An excerpt of these results, as a markdown table.

| Row | Sequence | binding signal |
| --- | --- | --- |
| 7 | CTGGTA | 1.2 |
| 8 | CTTAAG | 0.93 |
